# Test results as given in PubChem BioAssay AID540276 (National Center for Advancing Translational Sciences (NCATS), 2011).
# Several values for one entry are separate records, joined by “and”; a condition that tells them apart may be missing. Equal entries are not always repeated. In all, about 300,000 compounds went through this assay and about 5,400 (1.8%) were called active. The inconclusive results got no clear call from the source; some entries with a clear call stand among them for comparison. The call rests on the fitted dose curve; tested in HEK293 cells. Potencies of inconclusive entries are doubtful fits and often do not repeat.
# Experiment: qHTS for inhibitors of binding or entry into cells for Marburg Virus
# Settings: Marburg virus pseudotyped entry inhibition, cell reporter; activity change, negative = inhibition: at 37.8 µM (top of the series) unless noted
# On the % scale 0 is the no-effect control and ±100 the full control effect; potency means the concentration at half of the fitted maximal effect.
Compound,"activity change, negative = inhibition",Potency
Cc1cc(C)n2nc(C(=O)Nc3ccc(S(=O)(=O)N4CCCC4)cc3)nc2n1,inactive: -1.37% [at 46.1 µM],
Cn1cccc1/C=C1\CC(C(C)(C)C)C/C(=C\c2cccn2C)C1=O (stereo not drawn),,"inconclusive: 25.9 µM [inhibitor, single point]"
COc1ccc2cc(C(C)C(=O)Nc3cccc(S(=O)(=O)N(C)C)c3)ccc2c1 (stereo not drawn),,"inconclusive: 35.5 µM [inhibitor, single point]"
Cc1cccc(N2CCN(C(=O)CCc3c(C)nc4c(c3C)c(=O)n(C)c(=O)n4C)CC2)c1C,inactive: -10.5% [at 46.1 µM],
Cc1ccc(C(=O)N2CCN(C(=O)c3ccccc3)C2c2ccc(N(C)C)cc2)cc1 (stereo not drawn),,"inconclusive: 31.6 µM [activator, single point]"
Cc1cccc2sc(N(CCN3CCOCC3)C(=O)CCS(=O)(=O)c3ccccc3)nc12,,"inconclusive: 35.5 µM [inhibitor, partial curve, poor fit]"
FC(F)(F)c1ccc(C2Nc3cccc4cccc(c34)N2)cc1,,"inconclusive: 3.55 µM [inhibitor, single point]"
CCCN1C2CCCC1CC(NC(=O)c1cc(OC)c(OC)c(OC)c1)C2 (stereo not drawn),,"inconclusive: 0.316 µM [inhibitor, full curve, poor fit]"
CC(C)[N+](C)(C)CC(O)CN(c1ccccc1)c1ccccc1 (stereo not drawn),inactive: 11.2%,
CCN(CC)CCNc1nc(-c2cccs2)c(CC(=O)O)s1,,"inconclusive: 35.5 µM [activator, single point]"
CC(=O)c1sc(NC(=O)c2ccc(F)c(F)c2)nc1C,,"inconclusive: 6.51 µM [activator, partial curve, poor fit]"
CCCCCc1ccc(-c2ccc(/C=C/C(N)=O)cc2)nc1,inactive: -3.71%,
Cc1sc2ncnc(N3CCN(S(=O)(=O)c4ccc(F)cc4)CC3)c2c1C,,"inconclusive: 10 µM [inhibitor, partial curve, poor fit]"
Cc1cc(C)cc(OCC(O)CN2CCC(CN3C(=O)c4cccc5cccc(c45)C3=O)CC2)c1 (stereo not drawn),inactive: -0.923%,
CCNS(=O)(=O)c1ccc(CCC(=O)NCCC2=CCCCC2)cc1,,"inconclusive: 14.1 µM [activator, single point]"
COc1ccc2[nH]cc(CCN)c2c1,,"inactive and inconclusive: 282 nM [inhibitor, full curve, poor fit]"
CCOC(=O)c1sc2nc(N3CCCC3)c3c(c2c1N)CC(C)(C)OC3,,inactive
CCOC(=O)C1=C(C)N=c2s/c(=C3\C(=O)Nc4ccccc43)c(=O)n2C1c1ccc2c(c1)OCO2 (stereo not drawn),,inactive
COc1ccc(C(=O)Nc2ccc(NC(=O)c3cnccn3)cn2)cc1,inactive: 8.56%,
CN(C)S(=O)(=O)c1ccc2oc(SCC(N)=O)nc2c1,,"inconclusive: 1.26 µM [inhibitor, single point]"
CCc1ccc(NC(=O)CCCNC(=O)Cn2cnc3sc(C)c(C)c3c2=O)cc1,,"inconclusive: 35.5 µM [inhibitor, single point]"
CC(C)c1csc(CN2CCN(Cc3ccc(F)c(F)c3)C(CCO)C2)n1 (stereo not drawn),,"inconclusive: 35.5 µM [inhibitor, partial curve, poor fit]"

# Looked up above.
# Potency with CCNS(=O)(=O)c1ccc(CCC(=O)NCCC2=CCCCC2)cc1 is entered as inconclusive: 14.1 µM [activator, single point]
# Potency with Cc1sc2ncnc(N3CCN(S(=O)(=O)c4ccc(F)cc4)CC3)c2c1C is entered as inconclusive: 10 µM [inhibitor, partial curve, poor fit]

# Later entries.

Compound,"activity change, negative = inhibition",Potency
COc1ccc(-c2csc(Nc3ccccn3)n2)cc1OC,,"inconclusive: 0.316 µM [activator, partial curve, poor fit]"
O=C(c1cnn2c(C(F)F)cc(-c3ccccc3)nc12)N1CCc2ccccc2C1,,"inconclusive: 10 µM [inhibitor, single point]"
C/C(=N\Nc1ccc(Cl)cc1)c1ccccn1,,"inconclusive: 29.1 µM [activator, partial curve, poor fit]"
CN(C(=O)COC(=O)c1nc(Cl)c(Cl)c(Cl)c1Cl)C1CCS(=O)(=O)C1 (stereo not drawn),,"inconclusive: 10 µM [inhibitor, partial curve, poor fit]"
CCOc1nc2c(c(=O)n(C)c(=O)n2C)n1Cc1ccccc1Cl,inactive: -30.8%,
Cc1cc(C)c2c(CC(=O)Nc3ccc(F)cc3)coc2c1,,"inconclusive: 3.55 µM [activator, single point]"
O=C(/C=C\Nc1cccc(F)c1)c1ccc2c(c1)OCO2,,"inconclusive: 2.24 µM [inhibitor, full curve, poor fit]"
C=CCn1c(SCC(=O)NC(=O)NCc2ccco2)nc2sc(CC)cc2c1=O,,"inconclusive: 13 µM [inhibitor, partial curve, poor fit]"
Cc1ccc(NC(=O)CSc2nnc(CNC(=O)c3ccco3)n2C)c(C)c1,,"inconclusive: 35.5 µM [activator, partial curve, poor fit]"
Cc1cccc(CNc2ncc(-c3cccc([N+](=O)[O-])c3)n2C)c1,,"inconclusive: 1.16 µM [inhibitor, partial curve, poor fit]"
CC(=O)Nc1ccc2nc(-c3ccccn3)[nH]c2c1,inactive: 9.88%,
CC(C)(Oc1ccc(Cl)cc1)C(=O)NCC(c1cccs1)N1CCOCC1 (stereo not drawn),,"inconclusive: 3.16 µM [inhibitor, partial curve, poor fit]"
C/C(=N\NC(=O)C1CC1)c1ccc(N2CCOCC2)cc1,,"inconclusive: 6.31 µM [activator, full curve, poor fit]"
CSC(=N/N=C(\N)c1cnccn1)SC,inactive: 0.742%,
CCCOc1ccc(Br)cc1/C=N/O,,"inconclusive: 35.5 µM [inhibitor, single point]"
COCCNC(=O)COc1ccccc1Cl,inactive: 22.1%,
CCCN1C2CCCC1CC(NC(=O)c1cccc([N+](=O)[O-])c1)C2 (stereo not drawn),inactive: -6.89%,
O=C1OC(c2cccc([N+](=O)[O-])c2)C2(CCCC2)C(=O)C12CCCCC2 (stereo not drawn),,"inconclusive: 6.31 µM [inhibitor, full curve, poor fit]"
Cc1cc(C)n(-c2ccc(C(=O)Nc3nc4ccccc4s3)cc2)n1,inactive: -6.74%,
O=C1/C(=C/c2cccnc2)Oc2cc(OS(=O)(=O)c3ccc(Cl)cc3)ccc21,,"inconclusive: 29.1 µM [inhibitor, partial curve, poor fit]"
Cc1ccc(-c2cc(-c3ccc4c(c3)NC(=O)CO4)nc3c2COc2ccccc2-3)cc1,,"inconclusive: 4.47 µM [activator, full curve, poor fit]"
